The list shows a part of the results.
How the values were obtained:
Experiment in all cases: log2 fold change, soluble protein after heating vs DMSO (PISA); higher = thermal stabilisation; K562 cells, 10 uM, 30 min; active = over 0.2 and 3.5 SD of the protein, either way, in both replicates (recomputed)
bafetinib = compound: Cc1ccc(NC(=O)c2ccc(CN3CC[C@H](N(C)C)C3)c(C(F)(F)F)c2)cc1Nc1nccc(-c2cncnc2)n1 [bafetinib]
Summary of the method: (§1)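 K562 cells at 2×10^6 cells/mL were exposed to 10 μM compound for 30 min, then aliquots were heated for 3 min across 48°C-58°C, pooled, and extracted in PBS containing 0.5% NP-40 at 4°C. The supernatant after 21,000xg for 90 min was taken as soluble protein and measured by TMTpro 16plex LC-MS/MS with channel sums equalised. Thermal stability is reported relative to control samples, with values from duplicates. Fold changes are given on a log2 scale.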

By UniProt entry, the sequences of proteins in these tests, tags left out. Where a name states a change or a piece, a line headed by the entry shows the natural chain unless it says otherwise.
UniProt Q00013: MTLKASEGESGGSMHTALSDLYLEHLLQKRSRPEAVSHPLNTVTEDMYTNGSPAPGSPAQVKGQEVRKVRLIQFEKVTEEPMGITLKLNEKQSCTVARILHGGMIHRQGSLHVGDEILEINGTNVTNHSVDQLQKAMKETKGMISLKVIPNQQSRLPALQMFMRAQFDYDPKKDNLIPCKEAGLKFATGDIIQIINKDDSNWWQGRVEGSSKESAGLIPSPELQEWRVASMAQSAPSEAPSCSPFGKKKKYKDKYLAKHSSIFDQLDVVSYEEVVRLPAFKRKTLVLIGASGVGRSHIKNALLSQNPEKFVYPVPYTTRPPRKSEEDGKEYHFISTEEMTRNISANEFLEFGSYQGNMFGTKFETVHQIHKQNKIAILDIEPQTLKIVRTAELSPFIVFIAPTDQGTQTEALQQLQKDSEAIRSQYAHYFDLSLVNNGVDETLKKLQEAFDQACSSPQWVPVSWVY
UniProt Q7L1V2: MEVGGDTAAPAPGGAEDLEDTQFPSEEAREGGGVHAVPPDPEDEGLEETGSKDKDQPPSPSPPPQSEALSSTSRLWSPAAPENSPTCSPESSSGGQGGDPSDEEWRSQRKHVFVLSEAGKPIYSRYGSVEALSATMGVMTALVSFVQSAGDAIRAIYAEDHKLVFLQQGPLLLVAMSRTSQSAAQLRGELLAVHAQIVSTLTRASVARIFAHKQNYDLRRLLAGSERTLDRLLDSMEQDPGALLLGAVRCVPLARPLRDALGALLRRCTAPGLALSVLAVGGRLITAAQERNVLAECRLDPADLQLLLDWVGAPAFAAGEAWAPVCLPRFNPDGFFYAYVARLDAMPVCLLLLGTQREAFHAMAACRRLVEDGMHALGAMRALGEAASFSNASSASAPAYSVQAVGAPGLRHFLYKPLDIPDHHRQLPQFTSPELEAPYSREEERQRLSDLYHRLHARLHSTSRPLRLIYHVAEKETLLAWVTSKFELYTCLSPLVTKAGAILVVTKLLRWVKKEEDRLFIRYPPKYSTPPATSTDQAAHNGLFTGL
UniProt Q9H000: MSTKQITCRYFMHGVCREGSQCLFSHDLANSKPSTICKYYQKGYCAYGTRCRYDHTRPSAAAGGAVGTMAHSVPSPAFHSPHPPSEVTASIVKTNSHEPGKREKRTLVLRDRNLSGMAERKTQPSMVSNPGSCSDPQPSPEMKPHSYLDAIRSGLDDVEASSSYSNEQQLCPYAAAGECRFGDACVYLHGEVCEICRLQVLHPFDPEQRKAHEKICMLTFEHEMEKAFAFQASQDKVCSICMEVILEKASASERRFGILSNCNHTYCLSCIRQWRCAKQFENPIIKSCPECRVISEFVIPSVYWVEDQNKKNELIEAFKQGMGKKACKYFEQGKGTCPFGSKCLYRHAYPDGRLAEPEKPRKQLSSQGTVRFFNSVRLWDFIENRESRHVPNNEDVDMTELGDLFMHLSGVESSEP
UniProt P49959: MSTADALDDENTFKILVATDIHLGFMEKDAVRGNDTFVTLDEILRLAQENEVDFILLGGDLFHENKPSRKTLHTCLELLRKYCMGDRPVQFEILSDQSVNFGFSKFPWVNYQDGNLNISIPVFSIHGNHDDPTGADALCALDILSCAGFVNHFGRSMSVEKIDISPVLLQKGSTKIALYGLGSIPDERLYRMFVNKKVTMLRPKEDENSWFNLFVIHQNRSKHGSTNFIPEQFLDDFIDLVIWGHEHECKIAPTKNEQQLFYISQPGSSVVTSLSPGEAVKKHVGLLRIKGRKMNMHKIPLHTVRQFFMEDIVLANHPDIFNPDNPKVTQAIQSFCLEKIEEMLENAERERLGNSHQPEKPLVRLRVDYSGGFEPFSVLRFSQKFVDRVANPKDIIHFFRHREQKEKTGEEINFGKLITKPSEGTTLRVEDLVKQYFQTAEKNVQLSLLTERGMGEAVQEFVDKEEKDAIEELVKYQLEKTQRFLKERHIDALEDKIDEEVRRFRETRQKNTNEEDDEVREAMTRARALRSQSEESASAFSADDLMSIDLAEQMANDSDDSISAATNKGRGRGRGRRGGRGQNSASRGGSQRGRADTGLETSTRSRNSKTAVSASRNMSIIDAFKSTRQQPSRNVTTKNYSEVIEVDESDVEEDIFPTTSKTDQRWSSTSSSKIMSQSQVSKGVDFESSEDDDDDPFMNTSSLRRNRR
UniProt Q9NZW5: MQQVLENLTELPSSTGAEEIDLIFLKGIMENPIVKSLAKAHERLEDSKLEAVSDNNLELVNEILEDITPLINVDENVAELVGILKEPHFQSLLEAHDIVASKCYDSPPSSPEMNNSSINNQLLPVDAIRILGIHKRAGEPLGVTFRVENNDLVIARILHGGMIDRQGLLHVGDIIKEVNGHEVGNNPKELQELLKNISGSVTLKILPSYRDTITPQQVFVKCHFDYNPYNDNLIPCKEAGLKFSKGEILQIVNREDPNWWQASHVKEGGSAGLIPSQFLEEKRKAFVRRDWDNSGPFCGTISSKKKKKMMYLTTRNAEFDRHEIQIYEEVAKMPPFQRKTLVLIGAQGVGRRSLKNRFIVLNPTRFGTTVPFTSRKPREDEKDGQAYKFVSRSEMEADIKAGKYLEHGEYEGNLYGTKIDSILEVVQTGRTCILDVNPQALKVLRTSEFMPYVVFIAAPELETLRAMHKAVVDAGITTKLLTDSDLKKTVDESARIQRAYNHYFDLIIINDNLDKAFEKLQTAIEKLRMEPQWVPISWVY
UniProt O95297: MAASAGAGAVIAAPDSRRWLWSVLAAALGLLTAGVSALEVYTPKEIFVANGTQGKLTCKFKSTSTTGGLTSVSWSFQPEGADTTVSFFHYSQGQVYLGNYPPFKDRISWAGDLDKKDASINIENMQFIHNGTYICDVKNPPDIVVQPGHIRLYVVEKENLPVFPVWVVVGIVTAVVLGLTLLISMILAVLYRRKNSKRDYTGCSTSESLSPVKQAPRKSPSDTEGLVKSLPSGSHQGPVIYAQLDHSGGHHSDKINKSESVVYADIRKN
UniProt Q9NXC5: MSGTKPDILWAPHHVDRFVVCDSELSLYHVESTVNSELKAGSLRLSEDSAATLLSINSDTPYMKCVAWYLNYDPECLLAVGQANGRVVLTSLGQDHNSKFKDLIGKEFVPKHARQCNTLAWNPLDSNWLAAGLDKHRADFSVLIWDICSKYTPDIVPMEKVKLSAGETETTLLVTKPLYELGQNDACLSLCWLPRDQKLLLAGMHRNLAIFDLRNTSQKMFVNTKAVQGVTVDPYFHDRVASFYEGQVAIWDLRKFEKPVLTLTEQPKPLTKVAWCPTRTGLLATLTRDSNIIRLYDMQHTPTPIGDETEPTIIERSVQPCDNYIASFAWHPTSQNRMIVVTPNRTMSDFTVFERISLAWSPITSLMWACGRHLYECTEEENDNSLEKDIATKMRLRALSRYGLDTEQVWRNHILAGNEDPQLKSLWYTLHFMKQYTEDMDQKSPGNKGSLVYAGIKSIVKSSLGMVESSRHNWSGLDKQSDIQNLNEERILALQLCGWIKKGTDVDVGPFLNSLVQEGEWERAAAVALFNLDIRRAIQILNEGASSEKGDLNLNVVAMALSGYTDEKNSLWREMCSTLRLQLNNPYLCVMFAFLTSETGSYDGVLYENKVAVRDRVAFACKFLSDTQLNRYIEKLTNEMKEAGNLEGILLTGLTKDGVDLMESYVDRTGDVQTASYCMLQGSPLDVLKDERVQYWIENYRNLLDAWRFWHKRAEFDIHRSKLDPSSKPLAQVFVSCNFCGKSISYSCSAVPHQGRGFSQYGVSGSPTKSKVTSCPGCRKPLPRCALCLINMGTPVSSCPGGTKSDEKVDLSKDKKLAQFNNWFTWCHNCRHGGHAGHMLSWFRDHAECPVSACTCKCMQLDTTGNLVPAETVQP
UniProt Q99797: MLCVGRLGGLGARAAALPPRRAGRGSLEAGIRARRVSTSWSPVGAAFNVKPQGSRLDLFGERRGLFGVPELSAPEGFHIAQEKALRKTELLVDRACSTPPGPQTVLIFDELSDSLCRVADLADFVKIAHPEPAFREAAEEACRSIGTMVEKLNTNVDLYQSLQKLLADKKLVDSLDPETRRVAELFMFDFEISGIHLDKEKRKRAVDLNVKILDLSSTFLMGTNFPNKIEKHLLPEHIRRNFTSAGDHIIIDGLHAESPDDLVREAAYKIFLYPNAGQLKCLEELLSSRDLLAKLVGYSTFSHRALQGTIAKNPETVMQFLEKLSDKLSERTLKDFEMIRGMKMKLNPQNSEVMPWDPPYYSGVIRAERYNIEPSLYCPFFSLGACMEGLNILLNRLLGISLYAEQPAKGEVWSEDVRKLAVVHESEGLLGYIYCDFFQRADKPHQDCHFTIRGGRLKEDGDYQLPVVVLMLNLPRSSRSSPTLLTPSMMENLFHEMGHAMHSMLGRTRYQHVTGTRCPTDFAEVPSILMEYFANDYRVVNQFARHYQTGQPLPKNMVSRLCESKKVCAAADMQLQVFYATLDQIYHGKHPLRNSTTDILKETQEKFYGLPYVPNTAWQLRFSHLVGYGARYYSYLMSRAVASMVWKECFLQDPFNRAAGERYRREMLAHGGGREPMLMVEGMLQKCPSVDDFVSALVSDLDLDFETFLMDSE
UniProt Q9HCE1: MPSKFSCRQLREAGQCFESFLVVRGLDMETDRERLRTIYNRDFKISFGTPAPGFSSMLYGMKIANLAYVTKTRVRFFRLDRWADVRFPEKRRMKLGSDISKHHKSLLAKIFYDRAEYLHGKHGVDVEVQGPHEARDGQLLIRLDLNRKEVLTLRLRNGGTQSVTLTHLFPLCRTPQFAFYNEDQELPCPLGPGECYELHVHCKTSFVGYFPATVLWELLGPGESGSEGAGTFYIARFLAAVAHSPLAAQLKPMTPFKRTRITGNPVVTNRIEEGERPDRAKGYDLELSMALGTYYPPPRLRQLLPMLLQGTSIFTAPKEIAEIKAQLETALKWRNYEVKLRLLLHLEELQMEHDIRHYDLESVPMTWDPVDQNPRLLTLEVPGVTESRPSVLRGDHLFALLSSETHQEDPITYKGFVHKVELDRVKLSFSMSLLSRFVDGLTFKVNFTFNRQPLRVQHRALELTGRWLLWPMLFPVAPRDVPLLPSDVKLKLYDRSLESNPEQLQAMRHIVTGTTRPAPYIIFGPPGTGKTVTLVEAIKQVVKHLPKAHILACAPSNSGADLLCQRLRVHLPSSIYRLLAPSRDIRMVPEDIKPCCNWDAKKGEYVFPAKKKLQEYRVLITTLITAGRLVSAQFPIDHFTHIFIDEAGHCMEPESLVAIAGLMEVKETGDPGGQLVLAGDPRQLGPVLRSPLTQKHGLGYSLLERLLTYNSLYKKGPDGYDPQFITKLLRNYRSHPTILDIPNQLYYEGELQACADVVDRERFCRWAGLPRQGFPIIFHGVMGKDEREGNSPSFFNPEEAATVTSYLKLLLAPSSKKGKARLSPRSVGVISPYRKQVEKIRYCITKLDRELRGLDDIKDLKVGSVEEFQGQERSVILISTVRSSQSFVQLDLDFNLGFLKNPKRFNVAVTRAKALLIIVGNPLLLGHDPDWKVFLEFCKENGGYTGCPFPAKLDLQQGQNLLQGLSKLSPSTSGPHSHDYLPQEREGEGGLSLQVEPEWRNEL

[1] = compound: Cc1cccc(CC(=O)N2CCc3c2ccc(-c2cn(C)c4ncnc(N)c24)c3F)n1
Summary of the method: as §1

nilotinib = compound: Cc1cn(-c2cc(NC(=O)c3ccc(C)c(Nc4nccc(-c5cccnc5)n4)c3)cc(C(F)(F)F)c2)cn1 [nilotinib]
Summary of the method: as §1

[2] = compound: Cc1nc(Nc2n[nH]c3c2CN(C(=O)N[C@H](CN(C)C)c2ccccc2)C3(C)C)c2sccc2n1
Summary of the method: as §1

dasatinib = compound: Cc1nc(Nc2ncc(C(=O)Nc3c(C)cccc3Cl)s2)cc(N2CCN(CCO)CC2)n1 [dasatinib]
Summary of the method: as §1

[3] = compound: Cc1ncc(-c2ccnc(Nc3ccc(S(C)(=O)=O)cc3)n2)n1C(C)C
Summary of the method: as §1

[4] = compound: Cn1cc(-c2ccc3c(c2)CCN3C(=O)Cc2cccc(C(F)(F)F)c2)c2c(N)ncnc21
Summary of the method: as §1

[5] = compound: Cn1cc(-c2ccc3nnc(C(F)(F)c4ccc5ncccc5c4)n3n2)cn1
Summary of the method: as §1

tipifarnib = compound: Cn1cncc1[C@@](N)(c1ccc(Cl)cc1)c1ccc2c(c1)c(-c1cccc(Cl)c1)cc(=O)n2C [tipifarnib]
Summary of the method: as §1

mubritinib = compound: FC(F)(F)c1ccc(/C=C/c2nc(COc3ccc(CCCCn4ccnn4)cc3)co2)cc1 [mubritinib]
Summary of the method: as §1

[6] = compound: NC(=O)Nc1cc(-c2cccc(F)c2)sc1C(=O)N[C@H]1CCCNC1
Summary of the method: as §1

[7] = compound: NC(=O)c1cnc(N[C@@H]2CCCC[C@@H]2N)nc1Nc1cccc(-n2nccn2)c1
Summary of the method: as §1

[8] = compound: NC1(c2ccc(-c3nc4ccn5c(=O)[nH]nc5c4cc3-c3ccccc3)cc2)CCC1
Summary of the method: as §1

[9] = compound: NCC(=O)Nc1ccc(-n2nc(C(F)(F)F)cc2-c2ccc3c(ccc4ccccc43)c2)cc1
Summary of the method: as §1

entinostat = compound: Nc1ccccc1NC(=O)c1ccc(CNC(=O)OCc2cccnc2)cc1 [entinostat]
Summary of the method: as §1

vorinostat = compound: O=C(CCCCCCC(=O)Nc1ccccc1)NO [vorinostat]
Summary of the method: as §1

citarinostat = compound: O=C(CCCCCCNC(=O)c1cnc(N(c2ccccc2)c2ccccc2Cl)nc1)NO [citarinostat]
Summary of the method: as §1

silmitasertib = compound: O=C(O)c1ccc2c(c1)nc(Nc1cccc(Cl)c1)c1ccncc12 [silmitasertib]
Summary of the method: as §1

[10] = compound: O=C1NC(=O)C(c2cnc3ccccn23)=C1c1cn2c3c(cc(F)cc13)CN(C(=O)N1CCCCC1)CC2
Summary of the method: as §1

[11] = compound: c1cc(OCCN2CCCCC2)cc(-c2n[nH]c3ccc(-c4nnc[nH]4)cc23)c1
Summary of the method: as §1

Measured: log2 fold change

MPP1 (UniProt Q00013)
inactive: bafetinib 0.043 | [1] 0.035 | nilotinib 0.073 | [2] -0.179 | dasatinib -0.086 | [3] -0.019 | [4] 0.047 | [5] -0.023 | tipifarnib -0.04 | mubritinib 0.034 | [6] -0.083 | [7] -0.015 | [8] -0.159 | [9] -0.067 | entinostat 0.047 | vorinostat 0.093 | citarinostat 0.036 | silmitasertib 0.022 | [10] 0.027 | [11] -0.059

MON1B (UniProt Q7L1V2)
active: [8] -0.312
inactive: bafetinib -0.071 | [1] 0.004 | nilotinib 0.025 | [2] 0.015 | dasatinib -0.099 | [3] -0.048 | [4] 0.038 | [5] 0.012 | tipifarnib -0.011 | mubritinib 0.065 | [6] 0.015 | [7] -0.045 | [9] -0.053 | entinostat -0.018 | vorinostat -0.001 | citarinostat 0.056 | silmitasertib 0.032 | [10] 0.052 | [11] -0.081

MRPL53 (UniProt Q96EL3)
inactive: bafetinib 0.192 | [1] 0.177 | nilotinib -0.032 | [2] 0.149 | dasatinib 0.078 | [3] -0.068 | [4] -0.058 | [5] 0.041 | tipifarnib -0.019 | mubritinib 0.043 | [6] 0.017 | [7] -0.04 | [8] 0.076 | [9] 0.094 | entinostat -0.118 | vorinostat -0.018 | citarinostat 0.01 | silmitasertib 0.005 | [10] -0.093 | [11] -0.106

MRPL14 (UniProt Q6P1L8)
inactive: bafetinib 0.091 | [1] 0.073 | nilotinib -0.046 | [2] 0.033 | dasatinib -0.024 | [3] -0.035 | [4] 0.038 | [5] -0.043 | tipifarnib 0.001 | mubritinib 0.097 | [6] -0.028 | [7] 0.069 | [8] -0.066 | [9] 0.026 | entinostat -0.113 | vorinostat 0.016 | citarinostat -0.01 | silmitasertib -0.039 | [10] 0.088 | [11] -0.083

MRPL16 (UniProt Q9NX20)
inactive: bafetinib 0.228 | [1] 0.166 | nilotinib -0.078 | [2] 0.173 | dasatinib 0.076 | [3] -0.031 | [4] -0.343 | [5] -0.014 | tipifarnib 0.165 | mubritinib 0.027 | [6] 0.009 | [7] 0.282 | [8] 0.147 | [9] 0.11 | entinostat 0.021 | vorinostat -0.057 | citarinostat -0.051 | silmitasertib -0.063 | [10] -0.009 | [11] 0.286

MKRN2 (UniProt Q9H000)
inactive: bafetinib 0.073 | [1] -0.194 | nilotinib -0.048 | [2] -0.062 | dasatinib -0.088 | [3] 0.066 | [4] -0.284 | [5] -0.099 | tipifarnib -0.01 | mubritinib -0.142 | [6] -0.007 | [7] 0 | [8] 0.094 | [9] -0.044 | entinostat 0.104 | vorinostat 0.228 | citarinostat 0.042 | silmitasertib 0.047 | [10] 0.052 | [11] -0.129

MRPL3 (UniProt P09001)
inactive: bafetinib 0.245 | [1] 0.118 | nilotinib -0.112 | [2] 0.268 | dasatinib 0.033 | [3] -0.024 | [4] -0.142 | [5] -0.028 | tipifarnib 0.049 | mubritinib 0.049 | [6] 0.055 | [7] 0.08 | [8] -0.008 | [9] 0.087 | entinostat 0.009 | vorinostat 0.033 | citarinostat 0.011 | silmitasertib 0.013 | [10] 0.01 | [11] -0.055

MRE11 isoform 3 (UniProt P49959)
inactive: bafetinib -0.038 | [1] -0.002 | nilotinib 0.059 | [2] -0.086 | dasatinib 0.006 | [3] -0.018 | [4] -0.006 | [5] 0.038 | tipifarnib 0.048 | mubritinib 0.091 | [6] -0.049 | [7] 0.03 | [8] 0.017 | [9] -0.001 | entinostat -0.007 | vorinostat -0.169 | citarinostat 0.011 | silmitasertib -0.011 | [10] -0.032 | [11] -0.03

MPP6 (UniProt Q9NZW5)
inactive: bafetinib -0.024 | [1] -0.019 | nilotinib 0.033 | [2] -0.106 | dasatinib -0.025 | [3] -0.079 | [4] 0.074 | [5] -0.01 | tipifarnib 0.073 | mubritinib -0.017 | [6] -0.143 | [7] -0.015 | [8] -0.07 | [9] -0.03 | entinostat -0.009 | vorinostat 0.01 | citarinostat 0.063 | silmitasertib -0.009 | [10] -0.06 | [11] -0.055

MPZL1 (UniProt O95297)
inactive: bafetinib -0.015 | [1] -0.094 | nilotinib 0.021 | [2] 0.008 | dasatinib 0.042 | [3] 0.015 | [4] 0.087 | [5] 0.015 | tipifarnib -0.007 | mubritinib 0.025 | [6] -0.061 | [7] 0.078 | [8] 0.043 | [9] 0.002 | entinostat -0.019 | vorinostat -0.03 | citarinostat 0 | silmitasertib -0.055 | [10] -0.022 | [11] 0.006

MRPL27 (UniProt Q9P0M9)
inactive: bafetinib 0.216 | [1] 0.096 | nilotinib 0.06 | [2] 0.035 | dasatinib 0.027 | [3] -0.029 | [4] -0.252 | [5] -0.019 | tipifarnib 0.215 | mubritinib -0.008 | [6] 0.003 | [7] 0.202 | [8] 0.057 | [9] 0.142 | entinostat 0.029 | vorinostat -0.065 | citarinostat -0.022 | silmitasertib -0.019 | [10] 0.206 | [11] -0.104

MIOS (UniProt Q9NXC5)
inactive: bafetinib 0.067 | [1] -0.04 | nilotinib 0.015 | [2] 0.006 | dasatinib 0.061 | [3] -0.01 | [4] -0.073 | [5] -0.089 | tipifarnib 0.007 | mubritinib 0.026 | [6] 0.053 | [7] 0.047 | [8] 0.042 | [9] -0.033 | entinostat -0.047 | vorinostat 0.048 | citarinostat -0.028 | silmitasertib 0.022 | [10] -0.011 | [11] -0.079

MRPL1 (UniProt Q9BYD6)
inactive: bafetinib 0.159 | [1] 0.092 | nilotinib -0.084 | [2] 0.055 | dasatinib -0.017 | [3] -0.004 | [4] -0.122 | [5] -0.045 | tipifarnib 0.095 | mubritinib -0.08 | [6] -0.052 | [7] 0.037 | [8] -0.108 | [9] 0.158 | entinostat 0.061 | vorinostat 0.017 | citarinostat 0.05 | silmitasertib 0.057 | [10] 0.044 | [11] -0.058

MIPEP (UniProt Q99797)
inactive: bafetinib -0.073 | [1] -0.07 | nilotinib -0.051 | [2] -0.005 | dasatinib -0.108 | [3] 0.004 | [4] 0.057 | [5] -0.055 | tipifarnib 0.001 | mubritinib 0.047 | [6] 0.001 | [7] -0.038 | [8] -0.112 | [9] -0.027 | entinostat 0.039 | vorinostat -0.022 | citarinostat 0.078 | silmitasertib -0.05 | [10] -0.018 | [11] 0.096

Taken from the entries so far (4 entries):
MPP6 (UniProt Q9NZW5)
inactive: bafetinib -0.024 | [1] -0.019 | nilotinib 0.033 | [2] -0.106 | dasatinib -0.025 | [3] -0.079 | [4] 0.074 | [5] -0.01 | tipifarnib 0.073 | mubritinib -0.017 | [6] -0.143 | [7] -0.015 | [8] -0.07 | [9] -0.03 | entinostat -0.009 | vorinostat 0.01 | citarinostat 0.063 | silmitasertib -0.009 | [10] -0.06 | [11] -0.055

MPZL1 (UniProt O95297)
inactive: bafetinib -0.015 | [1] -0.094 | nilotinib 0.021 | [2] 0.008 | dasatinib 0.042 | [3] 0.015 | [4] 0.087 | [5] 0.015 | tipifarnib -0.007 | mubritinib 0.025 | [6] -0.061 | [7] 0.078 | [8] 0.043 | [9] 0.002 | entinostat -0.019 | vorinostat -0.03 | citarinostat 0 | silmitasertib -0.055 | [10] -0.022 | [11] 0.006

MRPL27 (UniProt Q9P0M9)
inactive: bafetinib 0.216 | [1] 0.096 | nilotinib 0.06 | [2] 0.035 | dasatinib 0.027 | [3] -0.029 | [4] -0.252 | [5] -0.019 | tipifarnib 0.215 | mubritinib -0.008 | [6] 0.003 | [7] 0.202 | [8] 0.057 | [9] 0.142 | entinostat 0.029 | vorinostat -0.065 | citarinostat -0.022 | silmitasertib -0.019 | [10] 0.206 | [11] -0.104

MIOS (UniProt Q9NXC5)
inactive: bafetinib 0.067 | [1] -0.04 | nilotinib 0.015 | [2] 0.006 | dasatinib 0.061 | [3] -0.01 | [4] -0.073 | [5] -0.089 | tipifarnib 0.007 | mubritinib 0.026 | [6] 0.053 | [7] 0.047 | [8] 0.042 | [9] -0.033 | entinostat -0.047 | vorinostat 0.048 | citarinostat -0.028 | silmitasertib 0.022 | [10] -0.011 | [11] -0.079

(list continues)

MRPL42 (UniProt Q9Y6G3)
inactive: bafetinib -0.049 | [1] -0.258 | nilotinib 0.108 | [2] 0.1 | dasatinib 0.032 | [3] -0.057 | [4] -0.237 | [5] -0.045 | tipifarnib 0.339 | mubritinib -0.071 | [6] -0.007 | [7] 0.074 | [8] -0.015 | [9] 0 | entinostat -0.033 | vorinostat 0.152 | citarinostat 0.065 | silmitasertib 0.01 | [10] 0 | [11] 0.02

MOV10 (UniProt Q9HCE1)
inactive: bafetinib 0.068 | [1] 0 | nilotinib 0.035 | [2] 0.041 | dasatinib 0.111 | [3] 0.068 | [4] -0.055 | [5] -0.101 | tipifarnib 0.091 | mubritinib -0.014 | [6] 0.007 | [7] 0.031 | [8] 0.178 | [9] 0.018 | entinostat 0.016 | vorinostat -0.02 | citarinostat -0.054 | silmitasertib 0.133 | [10] 0.187 | [11] -0.164

— the supplement of paper PMC10849652
